In doi:10.1101/2023.12.07.570680:
These are yes or no findings as the source states them, for the method shown. Some entries that bind do so weakly or less than the wild type. Tags and fused reporters may be left off the sequences shown.

Target: T1, EMB1270 (yeast two-hybrid fusion, transit peptide removed) (Arabidopsis thaliana) (UniProt Q5G1S8)
T1 sequence: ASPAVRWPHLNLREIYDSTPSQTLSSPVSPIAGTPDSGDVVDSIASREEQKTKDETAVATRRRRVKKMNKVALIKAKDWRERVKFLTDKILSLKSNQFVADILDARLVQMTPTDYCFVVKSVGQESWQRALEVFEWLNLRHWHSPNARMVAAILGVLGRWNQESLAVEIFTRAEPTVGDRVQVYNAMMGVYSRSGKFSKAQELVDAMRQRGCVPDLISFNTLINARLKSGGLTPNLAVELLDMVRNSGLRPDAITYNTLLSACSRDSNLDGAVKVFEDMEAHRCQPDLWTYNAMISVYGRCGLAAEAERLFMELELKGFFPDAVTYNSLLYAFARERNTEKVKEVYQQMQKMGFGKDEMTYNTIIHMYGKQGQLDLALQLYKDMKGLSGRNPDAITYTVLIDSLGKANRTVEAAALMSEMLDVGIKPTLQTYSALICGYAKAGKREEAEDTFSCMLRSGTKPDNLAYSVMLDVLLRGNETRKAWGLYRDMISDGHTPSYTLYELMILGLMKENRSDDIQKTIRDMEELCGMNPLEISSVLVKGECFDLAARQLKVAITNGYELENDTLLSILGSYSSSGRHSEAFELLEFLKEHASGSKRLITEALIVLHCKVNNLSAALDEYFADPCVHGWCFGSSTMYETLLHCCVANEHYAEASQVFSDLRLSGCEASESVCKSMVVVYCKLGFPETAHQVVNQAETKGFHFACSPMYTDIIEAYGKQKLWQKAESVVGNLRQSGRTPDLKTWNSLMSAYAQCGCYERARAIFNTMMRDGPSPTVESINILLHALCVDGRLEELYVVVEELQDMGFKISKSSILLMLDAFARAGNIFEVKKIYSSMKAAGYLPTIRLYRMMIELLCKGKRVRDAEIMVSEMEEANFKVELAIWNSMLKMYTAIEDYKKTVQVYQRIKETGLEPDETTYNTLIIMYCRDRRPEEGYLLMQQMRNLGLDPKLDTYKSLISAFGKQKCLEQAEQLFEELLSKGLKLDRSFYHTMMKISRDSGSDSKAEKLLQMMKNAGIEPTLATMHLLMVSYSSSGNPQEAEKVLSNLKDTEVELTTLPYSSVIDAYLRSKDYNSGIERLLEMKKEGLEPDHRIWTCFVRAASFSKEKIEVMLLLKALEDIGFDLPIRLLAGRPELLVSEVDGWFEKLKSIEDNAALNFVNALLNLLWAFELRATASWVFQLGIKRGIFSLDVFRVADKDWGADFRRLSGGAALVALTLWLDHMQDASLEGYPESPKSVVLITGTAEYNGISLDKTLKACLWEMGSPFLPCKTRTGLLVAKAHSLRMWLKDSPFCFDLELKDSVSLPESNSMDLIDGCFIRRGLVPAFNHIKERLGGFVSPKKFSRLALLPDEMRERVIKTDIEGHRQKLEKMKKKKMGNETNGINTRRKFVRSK
Experiment: two-hybrid

- binding: binds
B1: EMB1006 (yeast two-hybrid fusion, transit peptide removed) (protein, UniProt Q9FGR7 45-723)
chain: ATSPSSSSSSPSIFLSCFDDALPDKIQQPENSTINSEESECEEEDDEEGDDFTDPILKFFKSRTLTSESTADPARESKFSLQKNRRTSWHLAPDFADPETEIESKPEESVFVTNQQTLGVHIPFESGVAREILELAKNLKENQTLGEMLSGFERRVSDTECVEALVMMGESGFVKSCLYFYEWMSLQEPSLASPRACSVLFTLLGRERMADYILLLLSNLPDKEEFRDVRLYNAAISGLSASQRYDDAWEVYEAMDKINVYPDNVTCAILITTLRKAGRSAKEVWEIFEKMSEKGVKWSQDVFGGLVKSFCDEGLKEEALVIQTEMEKKGIRSNTIVYNTLMDAYNKSNHIEEVEGLFTEMRDKGLKPSAATYNILMDAYARRMQPDIVETLLREMEDLGLEPNVKSYTCLISAYGRTKKMSDMAADAFLRMKKVGLKPSSHSYTALIHAYSVSGWHEKAYASFEEMCKEGIKPSVETYTSVLDAFRRSGDTGKLMEIWKLMLREKIKGTRITYNTLLDGFAKQGLYIEARDVVSEFSKMGLQPSVMTYNMLMNAYARGGQDAKLPQLLKEMAALNLKPDSITYSTMIYAFVRVRDFKRAFFYHKMMVKSGQVPDPRSYEKLRAILEDKAKTKNRKDKTAILGIINSKFGRVKAKTKGKKDEFWKYKTNRTTSPGRHRS
